This is an account of results in patent publication US20170246263A1 (SHIRE HUMAN GENETIC THERAPIES, published 2017).

By UniProt entry, the sequences of proteins in these tests, tags left out. Where a name states a change or a piece, a line headed by the entry shows the natural chain unless it says otherwise.
UniProt Q99523: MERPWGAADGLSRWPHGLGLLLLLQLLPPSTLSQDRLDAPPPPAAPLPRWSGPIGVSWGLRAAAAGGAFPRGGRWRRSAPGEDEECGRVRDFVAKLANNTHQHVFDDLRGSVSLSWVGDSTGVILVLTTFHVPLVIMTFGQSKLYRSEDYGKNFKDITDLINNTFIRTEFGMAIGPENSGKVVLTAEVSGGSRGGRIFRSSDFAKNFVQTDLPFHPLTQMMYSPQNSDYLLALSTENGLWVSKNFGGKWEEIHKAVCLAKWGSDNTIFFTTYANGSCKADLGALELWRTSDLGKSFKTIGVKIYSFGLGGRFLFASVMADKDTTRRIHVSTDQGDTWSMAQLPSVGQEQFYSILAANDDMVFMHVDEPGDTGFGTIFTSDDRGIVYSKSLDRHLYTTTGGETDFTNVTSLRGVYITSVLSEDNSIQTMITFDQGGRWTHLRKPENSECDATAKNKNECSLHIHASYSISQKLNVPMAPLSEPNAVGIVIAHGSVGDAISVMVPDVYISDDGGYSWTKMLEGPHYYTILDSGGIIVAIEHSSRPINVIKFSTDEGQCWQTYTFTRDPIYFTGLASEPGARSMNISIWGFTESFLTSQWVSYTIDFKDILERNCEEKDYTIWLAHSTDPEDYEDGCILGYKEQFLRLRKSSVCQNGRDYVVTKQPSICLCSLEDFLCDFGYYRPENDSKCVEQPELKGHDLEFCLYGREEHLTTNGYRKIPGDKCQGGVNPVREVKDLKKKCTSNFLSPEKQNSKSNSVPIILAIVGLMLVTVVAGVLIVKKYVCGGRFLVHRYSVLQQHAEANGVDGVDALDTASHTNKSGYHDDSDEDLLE

These are yes or no findings as the source states them, for the method shown. Some results given as binding are weak or reduced against the parent protein; the word gives no strength. Tags and fused reporters may be left off the sequences shown.

The experiment addresses SORT1 on SORT1 overexpressing cells (Homo sapiens (Human)) (UniProt Q99523). The experiment is described as follows: binding/uptake assay on SORT1 overexpressing cells.

B1: Naglu-SapDC fusion protein (enzyme)
chain: DEAREAAAVRALVARLLGPGPAADFSVSVERALAAKPGLDTYSLGGGGAARVRVRGSTGVAAAAGLHRYLRDFCGCHVAWSGSQLRLPRPLPAVPGELTEATPNRYRYYQNVCTQSYSFVWWDWARWEREIDWMALNGINLALAWSGQEAIWQRVYLALGLTQAEINEFFTGPAFLAWGRMGNLHTWDGPLPPSWHIKQLYLQHRVLDQMRSFGMTPVLPAFAGHVPEAVTRVFPQVNVTKMGSWGHFNCSYSCSFLLAPEDPIFPIIGSLFLRELIKEFGTDHIYGADTFNEMQPPSSEPSYLAAATTAVYEAMTAVDTEAVWLLQGWLFQHQPQFWGPAQIRAVLGAVPRGRLLVLDLFAESQPVYTRTASFQGQPFIWCMLHNFGGNHGLFGALEAVNGGPEAARLFPNSTMVGTGMAPEGISQNEVVYSLMAELGWRKDPVPDLAAWVTSFAARRYGVSHPDAGAAWRLLLRSVYNCSGEACRGHNRSPLVRRPSLQMNTSIWYNRSDVFEAWRLLLTSAPSLATSPAFRYDLLDLTRQAVQELVSLYYEEARSAYLSKELASLLRAGGVLAYELLPALDEVLASDSRFLLGSWLEQARAAAVSEAEADFYEQNSRYQLTLWGPEGNILDYANKQLAGLVANYYTPRWRLFLEALVDSVAQGIPFQQHQFDKNVFQLEQAFVLSKQRYPSQPRGDTVDLAKKIFLKYYPRWVAGSWGAPGGGGGAAAAAGGGGGGAPGGGGGAAAAAGGGGGGAPGGGGGAAAAAGGGGGGAPDGGFCEVCKKLVGYLDRNLEKNSTKQEILAALEKGCSFLPDPYQKQCDQFVAEYEPVLIEILVEVMDPSFVCLKIGACPSAHKPLLGTEKCIWGPSYWCQNTETAAQCNAVEHCKRHVWN
In the case of B1, the binding entry was “binds”.

B2: Naglu-tPRGN fusion protein (enzyme)
chain: DEAREAAAVRALVARLLGPGPAADFSVSVERALAAKPGLDTYSLGGGGAARVRVRGSTGVAAAAGLHRYLRDFCGCHVAWSGSQLRLPRPLPAVPGELTEATPNRYRYYQNVCTQSYSFVWWDWARWEREIDWMALNGINLALAWSGQEAIWQRVYLALGLTQAEINEFFTGPAFLAWGRMGNLHTWDGPLPPSWHIKQLYLQHRVLDQMRSFGMTPVLPAFAGHVPEAVTRVFPQVNVTKMGSWGHFNCSYSCSFLLAPEDPIFPIIGSLFLRELIKEFGTDHIYGADTFNEMQPPSSEPSYLAAATTAVYEAMTAVDTEAVWLLQGWLFQHQPQFWGPAQIRAVLGAVPRGRLLVLDLFAESQPVYTRTASFQGQPFIWCMLHNFGGNHGLFGALEAVNGGPEAARLFPNSTMVGTGMAPEGISQNEVVYSLMAELGWRKDPVPDLAAWVTSFAARRYGVSHPDAGAAWRLLLRSVYNCSGEACRGHNRSPLVRRPSLQMNTSIWYNRSDVFEAWRLLLTSAPSLATSPAFRYDLLDLTRQAVQELVSLYYEEARSAYLSKELASLLRAGGVLAYELLPALDEVLASDSRFLLGSWLEQARAAAVSEAEADFYEQNSRYQLTLWGPEGNILDYANKQLAGLVANYYTPRWRLFLEALVDSVAQGIPFQQHQFDKNVFQLEQAFVLSKQRYPSQPRGDTVDLAKKIFLKYYPRWVAGSWGAPGGGGGAAAAAGGGGGGAPGGGGGAAAAAGGGGGGAPGGGGGAAAAAGGGGGGAPTKCLRREAPRWDAPLRDPALRQLL
notes: also called Naglu-tPGRN
Regarding B2, the binding entry is listed as “binds”.

B3: Naglu-SPP fusion protein (enzyme)
chain: DEAREAAAVRALVARLLGPGPAADFSVSVERALAAKPGLDTYSLGGGGAARVRVRGSTGVAAAAGLHRYLRDFCGCHVAWSGSQLRLPRPLPAVPGELTEATPNRYRYYQNVCTQSYSFVWWDWARWEREIDWMALNGINLALAWSGQEAIWQRVYLALGLTQAEINEFFTGPAFLAWGRMGNLHTWDGPLPPSWHIKQLYLQHRVLDQMRSFGMTPVLPAFAGHVPEAVTRVFPQVNVTKMGSWGHFNCSYSCSFLLAPEDPIFPIIGSLFLRELIKEFGTDHIYGADTFNEMQPPSSEPSYLAAATTAVYEAMTAVDTEAVWLLQGWLFQHQPQFWGPAQIRAVLGAVPRGRLLVLDLFAESQPVYTRTASFQGQPFIWCMLHNFGGNHGLFGALEAVNGGPEAARLFPNSTMVGTGMAPEGISQNEVVYSLMAELGWRKDPVPDLAAWVTSFAARRYGVSHPDAGAAWRLLLRSVYNCSGEACRGHNRSPLVRRPSLQMNTSIWYNRSDVFEAWRLLLTSAPSLATSPAFRYDLLDLTRQAVQELVSLYYEEARSAYLSKELASLLRAGGVLAYELLPALDEVLASDSRFLLGSWLEQARAAAVSEAEADFYEQNSRYQLTLWGPEGNILDYANKQLAGLVANYYTPRWRLFLEALVDSVAQGIPFQQHQFDKNVFQLEQAFVLSKQRYPSQPRGDTVDLAKKIFLKYYPRWVAGSWGAPGGGGGAAAAAGGGGGGAPGGGGGAAAAAGGGGGGAPGGGGGAAAAAGGGGGGAPQDRLDAPPPPAAPLPRWSGPIGVSWGLRAAAAGGAFPRGGRWRR
For B3, the binding result is reported as “binds”.
